Assay [1] deals with recombinant human truncated CD19-mouse IgG2a Fc fusion (human; mouse) (UniProt P15391). Put plainly: flow cytometry, scFv displayed on SupT1 cells stained with soluble CD19-mouse IgG2a Fc fusion.
The target in assay [2] is CD19 on SupT1 cells engineered to express CD19 (UniProt P15391). As to the kind of experiment: flow cytometry staining of SupT1 (CD19 negative) and SupT1 cells engineered to be CD19 positive. Background: Flow cytometry measures light scatter and fluorescence of single cells or particles in a stream.
For assay [3] the target is unchanged. Put plainly: flow cytometry, SupT1.CD19 cells against SupT1 cells, anti-mouse secondary.

Results are given in words; binding and its absence hold for the method and conditions named. Some results given as binding are weak or reduced against the parent protein; the word gives no strength.

B1: CAT19 scFv in VH-VL orientation, displayed on SupT1 cells in a non-signalling CAR format (scFv, not shown: small tags and cut ends; large carriers)
chain: QVQLQQSGPELVKPGASVKISCKASGYAFSSSWMNWVKQRPGKGLEWIGRIYPGDEDTNYSGKFKDKATLTADKSSTTAYMQLSSLTSEDSAVYFCARSLLYGDYLDYWGQGTTLTVSSGGGGSGGGGSGGGGSQIVLTQSPAIMSASPGEKVTMTCSASSSVSYMHWYQQKSGTSPKRWIYDTSKLASGVPDRFSGSGSGTSYFLTINNMEAEDAATYYCQQWNINPLTFGAGTKLELKR
As for B1, the binding result in assay [1] is “binds”.

B2: 4g7 scFv in VL-VH orientation, displayed on SupT1 cells in a non-signalling CAR format (scFv, not shown: small tags and cut ends; large carriers)
chain: DIVMTQAAPSIPVTPGESVSISCRSSKSLLNSNGNTYLYWFLQRPGQSPQLLIYRMSNLASGVPDRFSGSGSGTAFTLRISRVEAEDVGVYYCMQHLEYPFTFGAGTKLELKRSGGGGSGGGGSGGGGSEVQLQQSGPELIKPGASVKMSCKASGYTFTSYVMHWVKQKPGQGLEWIGYINPYNDGTKYNEKFKGKATLTSDKSSSTAYMELSSLTSEDSAVYYCARGTYYYGSRVFDYWGQGTTLTVSS
Take B2: the binding result in assay [1] is “binds”.

B3: 4g7 scFv in VH-VL orientation, displayed on SupT1 cells in a non-signalling CAR format (scFv, not shown: small tags and cut ends; large carriers)
chain: EVQLQQSGPELIKPGASVKMSCKASGYTFTSYVMHWVKQKPGQGLEWIGYINPYNDGTKYNEKFKGKATLTSDKSSSTAYMELSSLTSEDSAVYYCARGTYYYGSRVFDYWGQGTTLTVSSGGGGSGGGGSGGGGSDIVMTQAAPSIPVTPGESVSISCRSSKSLLNSNGNTYLYWFLQRPGQSPQLLIYRMSNLASGVPDRFSGSGSGTAFTLRISRVEAEDVGVYYCMQHLEYPFTFGAGTKLELKR
As for B3, in assay [1], the binding entry is “binds”.

B4: recombinant CAT19 antibody (antibody, V domains shown)
VH: QVQLQQSGPELVKPGASVKISCKASGYAFSSSWMNWVKQRPGKGLEWIGRIYPGDEDTNYSGKFKDKATLTADKSSTTAYMQLSSLTSEDSAVYFCARSLLYGDYLDYWGQGTTLTVSS
VL: QIVLTQSPAIMSASPGEKVTMTCSASSSVSYMHWYQQKSGTSPKRWIYDTSKLASGVPDRFSGSGSGTSYFLTINNMEAEDAATYYCQQWNINPLTFGAGTKLELKR
Regarding B4, the binding result in assay [2] and in assay [3] was “binds” throughout.

B5: CAT19 scFv in VL-VH orientation, displayed on SupT1 cells in a non-signalling CAR format (scFv, not shown: small tags and cut ends; large carriers)
chain: QIVLTQSPAIMSASPGEKVTMTCSASSSVSYMHWYQQKSGTSPKRWIYDTSKLASGVPDRFSGSGSGTSYFLTINNMEAEDAATYYCQQWNINPLTFGAGTKLELKRSGGGGSGGGGSGGGGSQVQLQQSGPELVKPGASVKISCKASGYAFSSSWMNWVKQRPGKGLEWIGRIYPGDEDTNYSGKFKDKATLTADKSSTTAYMQLSSLTSEDSAVYFCARSLLYGDYLDYWGQGTTLTVSS
For the molecule B5, the binding result in assay [1] is recorded as “binds”.
